A short description of the experiment: qHTS Assay to Find Inhibitors of Chronic Active B-Cell Receptor Signaling. The following applies: ABC-DLBCL IkBa-CBG/CBR reporter, luminescence ratio (green luciferase fused to IkBa over red control in TMD8 lymphoma cells), 4 h. Put shortly: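 Cell line TMD8 (human ABC DLBCL), stably expressing tet-inducible CBG68-IkBa fusion and CBR; IMDM/0.5% FBS; cpd up to 46 uM; dox induction, 4 h, 37C/5% CO2; dual luminescence; green/red ratio; MG132 control.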

The mark [1] stands for this setting: measured here: CBR red luminescence, cell number.
The mark [2] stands for this setting: measured here: IkBa-CBG green luminescence.

SMILES strings stand for the structures. This is one part of the list. These are further read-outs of the screen, such as a control signal, another cell line or another target. No call is given for them. Most of these compounds were active or inconclusive in the main read-out, so they are no random draw. Potencies come from curve fits of mixed quality, noted in brackets.

Turning to `COc1ccc(CCNC(=O)CSc2nnc3ccc(-c4ccccn4)nn23)cc1`, under setting [1], the half-maximal activity concentration (AC50) is 1.64 µM [falling, full curve, poor fit].
Same read-out and setting: the figure for `Clc1cccc(CN2CCN(c3nc4nonc4nc3NC3CC3)CC2)c1` is 17.8 µM [falling, partial curve, poor fit]; for `O=C(Cc1ccccc1)NC(Nc1cccc2ccccc12)C(Cl)(Cl)Cl` (stereo not drawn) it is 0.501 µM [falling, full curve].
On to `Cc1ccc2c(c1)NC(=O)C(CC(=O)Nc1ccc(Br)c(C)c1)O2` (stereo not drawn), for which, under setting [1], the AC50 is 3.98 µM [rising, partial curve].
As to `COC(=O)c1c(NC(=O)CSc2nc3nc(C)cc(C)n3n2)sc(C)c1C`, the AC50 under setting [1] is 29.1 µM [rising, partial curve, poor fit].
Same read-out and setting: the figure for `CSc1ccccc1OCc1cc(C(=O)NC2CCOC(C)(C)C2)no1` (stereo not drawn) is 35.5 µM [falling, single point]; for `NC(=O)CSc1nnc2sc3ccccc3n12` it is 15.8 µM [rising, partial curve, poor fit]; for `COc1ccccc1C(=O)NNC(=O)c1ccccc1[N+](=O)[O-]` it is 5.17 µM [falling, partial curve].
On to `Cc1ccc(/C=N/Nc2cccc(C(=O)O)c2)s1`, for which, under setting [1], the AC50 is 0.058 µM [falling, full curve].
Same read-out and setting: in the case of `C/C(=C1/SC(N2CC(C)OC(C)C2)=NC1=O)c1ccccc1` (stereo not drawn) it was 1.03 µM [rising, full curve, poor fit]; in that of `CCN(CC(=O)Nc1c(F)cccc1F)C(=O)/C=C/c1ccc2c(c1)OCO2`, 2.06 µM [falling, partial curve].
Still for that read-out and setting: in the case of `Cc1ccc2cc(C=O)c(N3CCOCC3)nc2c1C` it was 35.5 µM [rising, single point].
Take `COc1cc2c(cc1NC(=O)CSc1nc3ccccc3[nH]1)oc1ccccc12`: under setting [1], the AC50 is 13 µM [falling, single point].
With `COc1ccc(NC(=O)c2ccc3c(c2)OCO3)cc1Cl`, under setting [1], the AC50 is 0.562 µM [falling, full curve].
The same measure, in the same setting: in the case of `COCCCNC(=O)c1cc(C(=O)c2c(-c3c(Cl)cccc3Cl)noc2C)c[nH]1` it was 6.31 µM [rising, single point]; in that of `O=C(NN1C(=O)C2C3C=CC(C4CC34)C2C1=O)c1ccc(Cl)cc1` (stereo not drawn), 0.891 µM [falling, full curve, poor fit]; in that of `O=C(CC(Nc1ccc(Cl)cc1)C(=O)O)c1ccccc1` (stereo not drawn), 11.6 µM [falling, partial curve, poor fit].
The same measure, in the same setting: in the case of `O=C(/C=C/c1ccccc1)NCCc1ccccc1` it was 8.91 µM [falling, partial curve, poor fit].
The same measure, in the same setting: in the case of `CCOC(=O)C1=C(C)NC2=C(C(=O)CC(C)(C)C2)C1c1ccc(N(C)C)cc1` (stereo not drawn) it was 8.2 µM [rising, partial curve, poor fit].
As for `CCOC(=O)c1cccc(NC(=O)CCn2c(-c3ccc(F)cc3)cc(C(=O)OCC)c2C)c1`, the AC50 under setting [1] was 3.55 µM [rising, single point].
In the case of `N#Cc1ccc(/C=C/C(=O)c2ccccc2)cc1`, the AC50 was 17.8 µM [rising, partial curve, poor fit] under setting [1] and 31.6 µM [falling, single point] under setting [2].
As for `O=C(O)c1ccc(Nc2nc3c(s2)CCCC3)cc1`, under setting [1], the AC50 is 0.355 µM [falling, full curve].
Still for that read-out and setting: in the case of `COc1cc(-c2cc(C(=O)NCCc3ccc(S(N)(=O)=O)cc3)c3ccccc3n2)cc(OC)c1OC` it was 6.31 µM [rising, single point]; in that of `COc1ccc(N2CCN(S(=O)(=O)CCNS(=O)(=O)c3ccccc3)CC2)cc1`, 2.06 µM [rising, full curve]; in that of `CN(C)c1ccc(/C=N/NC(=O)c2ccc3nc[nH]c3c2)cc1`, 8.91 µM [falling, partial curve, poor fit].
On the same count and under the same terms, the figure for `COc1ccc(Br)c(C(=O)NCC2CCCCC2)c1` is 7.94 µM [rising, partial curve, poor fit].
Still for that read-out and setting: in the case of `COC(=O)c1ccccc1NC(=O)NC1CCN(Cc2ccccc2)CC1` it was 1.16 µM [falling, full curve, poor fit]; in that of `O=S(=O)(Cc1ccccc1)NCCc1cccc(Cl)c1`, 6.31 µM [rising, full curve, poor fit].
Consider `CCN1C(=O)[C@H]2[C@H]3CN=C(SCc4ccc(Cl)cc4)N3[C@@](CC)(C(=O)OC)[C@H]2C1=O`, for which the AC50 under setting [1] is 25.9 µM [falling, partial curve].
With `Cc1cccc(-c2ccc3ncnc(N(C)Cc4ccco4)c3c2)c1`, the AC50 under setting [1] was 4.11 µM [rising, single point].
For the compound `COCCCNC(=S)N/N=C/c1ccc(OC)c(Br)c1`, the AC50 under setting [2] is 35.5 µM [falling, single point].
As to `COc1ccc(CC(NC(C)=O)C(=O)N2CCN(C(=O)N(C(C)C)C(C)C)CC2)cc1` (stereo not drawn), the AC50 under setting [1] is 29.1 µM [falling, single point].
As to `COC(=O)c1ccccc1NC(=O)c1cc2sccc2n1C`, the AC50 under setting [1] was 6.51 µM [falling, full curve, poor fit].
The same measure, in the same setting: the figure for `O=C(Nc1cccc(C(F)(F)F)c1)Nc1ccon1` is 3.98 µM [rising, single point]; for `CC(C)(C(=O)Nc1nccs1)c1ccccc1` it is 0.316 µM [falling, partial curve, poor fit]; for `Cc1nn(-c2ccccc2)c(C)c1NC(=O)c1ccc(S(=O)(=O)N2CCCC2)cc1` it is 6.31 µM [rising, partial curve, poor fit].
On to `CCOC(=O)CCNC(=O)c1ccc2nc(C3CCCCC3)oc2c1`, for which the AC50 under setting [1] is 12.6 µM [rising, partial curve].
Consider `CN(C)c1ccc(N2CN=C3SCC(=O)N3C2)cc1`, for which the AC50 under setting [1] is 6.31 µM [falling, partial curve].
`CC(C)OCCCNC1=C(Cl)C(=O)c2ccccc2C1=O`: the AC50 is 0.708 µM [falling, full curve, poor fit] under setting [1] and 0.562 µM [rising, full curve, poor fit] under setting [2].
In the case of `CC(=O)C1=C(c2ccccc2)NC(=O)NC1c1cccs1` (stereo not drawn), the concentration at half-maximal activity (AC50) runs as follows: under setting [1], 15.8 µM [falling, partial curve, poor fit]; under setting [2], 35.5 µM [rising, partial curve, poor fit].
